Values quoted from earlier work in patent US6126966A (Sequus Pharmaceuticals, Inc., priority 1999, dated 2000).
At least one structure is not confirmed: it was looked up by name or label, or the drawing left a doubt.

Settings: cited from earlier work

NCC1(CN)CCCCC1.O=S(=O)([O-])[O-].[Pt+2] [spiroplatin]
toxicity relative to native cisplatin: more toxic than native cisplatin
